Test results as given in publication doi:10.1101/2022.04.10.487777.
These are yes or no findings as the source states them, for the method shown. In cells and extracts the contact can be indirect. Some entries that bind do so weakly or less than the wild type. Tags and fused reporters may be left off the sequences shown. Blank lines part the entries; values can stand above or below the molecule they belong to.

Sequences of proteins named here, by UniProt entry; tags and fusion partners are left off.
UniProt Q1MSJ5: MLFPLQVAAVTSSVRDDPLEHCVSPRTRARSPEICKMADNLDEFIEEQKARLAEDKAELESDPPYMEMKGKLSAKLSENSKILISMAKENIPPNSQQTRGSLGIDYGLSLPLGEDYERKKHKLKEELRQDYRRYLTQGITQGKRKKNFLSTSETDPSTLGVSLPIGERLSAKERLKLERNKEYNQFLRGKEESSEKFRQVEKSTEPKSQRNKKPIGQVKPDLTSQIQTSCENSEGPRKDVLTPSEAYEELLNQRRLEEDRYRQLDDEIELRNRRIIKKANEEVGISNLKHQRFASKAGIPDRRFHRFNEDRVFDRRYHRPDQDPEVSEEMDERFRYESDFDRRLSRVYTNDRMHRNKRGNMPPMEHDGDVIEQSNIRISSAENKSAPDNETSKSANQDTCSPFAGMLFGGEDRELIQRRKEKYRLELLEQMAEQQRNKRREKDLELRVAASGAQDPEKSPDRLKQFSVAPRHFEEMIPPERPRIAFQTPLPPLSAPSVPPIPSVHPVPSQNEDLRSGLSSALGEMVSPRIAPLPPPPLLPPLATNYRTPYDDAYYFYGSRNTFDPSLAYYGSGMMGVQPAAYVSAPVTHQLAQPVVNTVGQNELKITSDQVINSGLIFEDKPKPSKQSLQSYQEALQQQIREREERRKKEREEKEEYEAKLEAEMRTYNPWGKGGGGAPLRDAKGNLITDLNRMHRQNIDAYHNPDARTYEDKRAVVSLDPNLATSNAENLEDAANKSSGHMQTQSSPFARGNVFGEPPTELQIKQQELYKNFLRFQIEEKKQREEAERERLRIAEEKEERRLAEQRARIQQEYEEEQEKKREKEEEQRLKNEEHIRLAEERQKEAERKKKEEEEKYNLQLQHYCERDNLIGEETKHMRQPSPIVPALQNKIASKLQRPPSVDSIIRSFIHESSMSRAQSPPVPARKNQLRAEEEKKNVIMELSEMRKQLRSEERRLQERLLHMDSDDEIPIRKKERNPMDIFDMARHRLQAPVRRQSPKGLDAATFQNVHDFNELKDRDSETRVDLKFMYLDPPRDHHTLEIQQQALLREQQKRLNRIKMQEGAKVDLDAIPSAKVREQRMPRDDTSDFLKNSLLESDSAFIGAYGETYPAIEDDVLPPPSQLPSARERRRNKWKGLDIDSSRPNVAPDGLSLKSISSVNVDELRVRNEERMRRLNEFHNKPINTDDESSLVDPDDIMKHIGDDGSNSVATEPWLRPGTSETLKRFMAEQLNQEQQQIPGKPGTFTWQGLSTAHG
UniProt O15078: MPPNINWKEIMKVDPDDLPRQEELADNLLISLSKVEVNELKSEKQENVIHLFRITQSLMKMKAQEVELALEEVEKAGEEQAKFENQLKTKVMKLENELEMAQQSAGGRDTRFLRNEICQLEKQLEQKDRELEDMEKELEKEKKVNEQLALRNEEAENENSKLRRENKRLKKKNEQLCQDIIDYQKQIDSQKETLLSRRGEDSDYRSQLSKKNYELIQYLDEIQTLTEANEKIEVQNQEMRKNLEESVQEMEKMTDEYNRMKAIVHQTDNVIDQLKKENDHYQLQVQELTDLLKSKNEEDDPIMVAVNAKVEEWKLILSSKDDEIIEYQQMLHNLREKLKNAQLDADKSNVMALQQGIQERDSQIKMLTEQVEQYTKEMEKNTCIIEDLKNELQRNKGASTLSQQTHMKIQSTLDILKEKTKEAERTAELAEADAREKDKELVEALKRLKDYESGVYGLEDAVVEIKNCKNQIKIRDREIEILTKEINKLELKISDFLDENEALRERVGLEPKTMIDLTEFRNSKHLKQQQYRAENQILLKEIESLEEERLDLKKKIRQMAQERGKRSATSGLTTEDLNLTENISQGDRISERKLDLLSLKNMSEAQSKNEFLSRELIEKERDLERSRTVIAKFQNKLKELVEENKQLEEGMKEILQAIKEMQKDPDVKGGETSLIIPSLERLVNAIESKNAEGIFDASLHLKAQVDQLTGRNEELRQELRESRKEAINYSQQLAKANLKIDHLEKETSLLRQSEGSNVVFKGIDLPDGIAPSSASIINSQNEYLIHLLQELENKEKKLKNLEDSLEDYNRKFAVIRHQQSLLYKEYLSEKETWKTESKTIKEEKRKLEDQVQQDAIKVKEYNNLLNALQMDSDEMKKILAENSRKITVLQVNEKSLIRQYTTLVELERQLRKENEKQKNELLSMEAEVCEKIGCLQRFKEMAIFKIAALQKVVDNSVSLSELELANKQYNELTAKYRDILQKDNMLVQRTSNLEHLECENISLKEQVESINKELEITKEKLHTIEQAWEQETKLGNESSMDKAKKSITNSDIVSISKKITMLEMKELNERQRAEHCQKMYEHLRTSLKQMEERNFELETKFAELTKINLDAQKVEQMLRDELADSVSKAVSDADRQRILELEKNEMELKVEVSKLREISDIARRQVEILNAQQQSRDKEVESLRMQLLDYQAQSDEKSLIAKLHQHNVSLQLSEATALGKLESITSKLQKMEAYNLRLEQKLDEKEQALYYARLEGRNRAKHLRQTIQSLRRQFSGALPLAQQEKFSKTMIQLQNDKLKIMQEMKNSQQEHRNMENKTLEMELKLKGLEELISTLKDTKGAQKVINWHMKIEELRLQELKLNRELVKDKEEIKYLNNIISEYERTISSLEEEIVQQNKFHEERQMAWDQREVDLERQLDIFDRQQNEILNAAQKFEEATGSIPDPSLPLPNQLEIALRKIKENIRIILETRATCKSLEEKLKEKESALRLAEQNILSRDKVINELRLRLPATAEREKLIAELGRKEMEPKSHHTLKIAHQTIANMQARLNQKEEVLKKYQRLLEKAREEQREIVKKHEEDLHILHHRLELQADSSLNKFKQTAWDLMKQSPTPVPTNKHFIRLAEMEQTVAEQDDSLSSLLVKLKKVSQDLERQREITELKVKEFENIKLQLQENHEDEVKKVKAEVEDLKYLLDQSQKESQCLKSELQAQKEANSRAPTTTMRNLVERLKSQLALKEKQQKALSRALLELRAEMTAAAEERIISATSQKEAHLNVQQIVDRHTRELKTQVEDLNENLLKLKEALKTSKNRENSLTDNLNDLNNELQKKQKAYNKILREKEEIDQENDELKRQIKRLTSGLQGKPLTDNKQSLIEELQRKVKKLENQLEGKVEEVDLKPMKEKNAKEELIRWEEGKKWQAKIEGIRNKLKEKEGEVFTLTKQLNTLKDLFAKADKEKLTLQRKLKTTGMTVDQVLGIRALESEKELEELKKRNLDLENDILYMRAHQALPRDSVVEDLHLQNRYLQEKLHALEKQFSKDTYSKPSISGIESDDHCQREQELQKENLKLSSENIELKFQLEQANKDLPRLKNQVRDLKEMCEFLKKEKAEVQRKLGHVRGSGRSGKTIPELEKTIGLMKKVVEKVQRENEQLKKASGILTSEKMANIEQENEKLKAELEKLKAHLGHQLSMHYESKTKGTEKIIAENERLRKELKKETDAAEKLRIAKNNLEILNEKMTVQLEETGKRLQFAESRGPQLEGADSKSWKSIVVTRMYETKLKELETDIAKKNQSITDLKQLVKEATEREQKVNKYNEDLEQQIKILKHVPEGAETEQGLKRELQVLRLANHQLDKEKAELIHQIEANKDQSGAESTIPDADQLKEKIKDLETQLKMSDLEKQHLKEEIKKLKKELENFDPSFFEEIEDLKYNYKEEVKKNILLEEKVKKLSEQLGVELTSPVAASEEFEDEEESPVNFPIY
UniProt Q15154: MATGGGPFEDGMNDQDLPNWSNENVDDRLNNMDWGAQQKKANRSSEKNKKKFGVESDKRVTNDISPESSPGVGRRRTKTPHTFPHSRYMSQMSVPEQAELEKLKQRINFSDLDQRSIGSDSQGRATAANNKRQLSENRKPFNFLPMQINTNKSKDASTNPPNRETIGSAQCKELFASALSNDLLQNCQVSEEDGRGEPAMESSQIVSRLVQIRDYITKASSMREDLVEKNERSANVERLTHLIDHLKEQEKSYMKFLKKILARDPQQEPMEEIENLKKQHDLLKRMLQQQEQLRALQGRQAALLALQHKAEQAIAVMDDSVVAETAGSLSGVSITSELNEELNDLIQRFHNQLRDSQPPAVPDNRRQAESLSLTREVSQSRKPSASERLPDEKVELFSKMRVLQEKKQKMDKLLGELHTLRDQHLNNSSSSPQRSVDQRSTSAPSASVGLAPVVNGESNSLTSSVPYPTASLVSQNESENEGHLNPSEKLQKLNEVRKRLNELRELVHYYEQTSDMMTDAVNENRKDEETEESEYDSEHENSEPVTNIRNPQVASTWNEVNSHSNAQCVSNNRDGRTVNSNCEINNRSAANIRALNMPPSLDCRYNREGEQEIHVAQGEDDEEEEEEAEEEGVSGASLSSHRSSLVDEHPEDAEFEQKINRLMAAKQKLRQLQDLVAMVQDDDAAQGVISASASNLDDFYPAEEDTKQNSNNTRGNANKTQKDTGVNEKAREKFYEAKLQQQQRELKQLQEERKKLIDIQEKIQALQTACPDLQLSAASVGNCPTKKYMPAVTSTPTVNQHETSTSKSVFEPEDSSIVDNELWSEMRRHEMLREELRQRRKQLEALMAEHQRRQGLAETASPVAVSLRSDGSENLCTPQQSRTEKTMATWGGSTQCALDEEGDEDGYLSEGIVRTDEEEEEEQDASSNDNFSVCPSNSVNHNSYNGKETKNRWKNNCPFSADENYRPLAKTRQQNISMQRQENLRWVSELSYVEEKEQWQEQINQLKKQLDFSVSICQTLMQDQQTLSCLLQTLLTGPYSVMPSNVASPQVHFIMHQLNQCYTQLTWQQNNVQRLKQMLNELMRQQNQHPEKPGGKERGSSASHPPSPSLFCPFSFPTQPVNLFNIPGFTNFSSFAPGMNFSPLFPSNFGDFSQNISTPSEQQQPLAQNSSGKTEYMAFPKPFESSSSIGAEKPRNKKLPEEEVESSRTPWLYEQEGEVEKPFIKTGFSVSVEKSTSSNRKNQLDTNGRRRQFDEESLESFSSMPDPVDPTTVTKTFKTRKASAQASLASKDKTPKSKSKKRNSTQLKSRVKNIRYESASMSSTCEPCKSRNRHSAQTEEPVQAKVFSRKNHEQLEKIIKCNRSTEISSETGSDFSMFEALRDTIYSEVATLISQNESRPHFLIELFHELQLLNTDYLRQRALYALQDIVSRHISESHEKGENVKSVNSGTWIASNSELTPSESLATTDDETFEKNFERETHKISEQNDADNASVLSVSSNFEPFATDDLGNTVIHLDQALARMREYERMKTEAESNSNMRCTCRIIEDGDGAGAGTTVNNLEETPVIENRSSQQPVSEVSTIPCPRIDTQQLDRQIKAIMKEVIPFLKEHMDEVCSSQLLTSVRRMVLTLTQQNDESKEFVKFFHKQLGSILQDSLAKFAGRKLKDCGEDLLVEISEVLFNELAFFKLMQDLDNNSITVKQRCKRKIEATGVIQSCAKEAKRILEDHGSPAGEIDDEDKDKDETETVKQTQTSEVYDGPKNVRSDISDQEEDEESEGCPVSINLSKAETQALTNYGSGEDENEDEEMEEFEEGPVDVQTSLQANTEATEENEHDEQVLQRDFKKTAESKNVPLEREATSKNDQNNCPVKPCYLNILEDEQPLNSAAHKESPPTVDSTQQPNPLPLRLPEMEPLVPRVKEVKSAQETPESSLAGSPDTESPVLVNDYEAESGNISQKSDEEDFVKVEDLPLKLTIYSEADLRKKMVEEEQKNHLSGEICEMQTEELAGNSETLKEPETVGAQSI

Assays:
Experiment in all cases: co-IP
EGFP-CCDC66 full length = molecular target: T1, EGFP-CCDC66 full length (UniProt A2RUB6)
T1 sequence: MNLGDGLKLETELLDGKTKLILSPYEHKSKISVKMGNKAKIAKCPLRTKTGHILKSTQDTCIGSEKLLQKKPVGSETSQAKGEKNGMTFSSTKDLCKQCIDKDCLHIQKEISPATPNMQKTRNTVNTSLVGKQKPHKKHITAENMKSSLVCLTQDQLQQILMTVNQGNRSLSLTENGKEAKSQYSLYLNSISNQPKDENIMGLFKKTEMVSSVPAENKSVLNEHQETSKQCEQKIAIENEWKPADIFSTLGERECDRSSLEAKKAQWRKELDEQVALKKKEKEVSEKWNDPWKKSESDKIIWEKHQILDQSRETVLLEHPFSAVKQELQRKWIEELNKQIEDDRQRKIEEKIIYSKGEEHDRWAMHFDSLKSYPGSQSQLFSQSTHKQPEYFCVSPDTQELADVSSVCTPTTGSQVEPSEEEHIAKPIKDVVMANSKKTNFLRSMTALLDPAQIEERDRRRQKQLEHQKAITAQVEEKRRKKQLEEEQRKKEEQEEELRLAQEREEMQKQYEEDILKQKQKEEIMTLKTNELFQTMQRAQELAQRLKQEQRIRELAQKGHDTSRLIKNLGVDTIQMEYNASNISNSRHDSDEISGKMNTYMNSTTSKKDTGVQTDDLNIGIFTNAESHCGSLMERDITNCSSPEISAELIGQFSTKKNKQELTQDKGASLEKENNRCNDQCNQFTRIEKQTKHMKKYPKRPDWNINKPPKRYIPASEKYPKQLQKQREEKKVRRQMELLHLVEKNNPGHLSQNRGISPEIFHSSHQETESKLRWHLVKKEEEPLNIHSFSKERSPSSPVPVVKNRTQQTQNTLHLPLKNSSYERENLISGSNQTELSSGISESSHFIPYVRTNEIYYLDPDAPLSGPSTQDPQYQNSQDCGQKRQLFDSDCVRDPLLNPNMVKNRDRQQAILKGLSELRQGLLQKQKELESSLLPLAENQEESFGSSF

EGFP-CCDC66 (570-948) = molecular target: T2, EGFP-CCDC66 (570-948) (UniProt A2RUB6)
T2 sequence: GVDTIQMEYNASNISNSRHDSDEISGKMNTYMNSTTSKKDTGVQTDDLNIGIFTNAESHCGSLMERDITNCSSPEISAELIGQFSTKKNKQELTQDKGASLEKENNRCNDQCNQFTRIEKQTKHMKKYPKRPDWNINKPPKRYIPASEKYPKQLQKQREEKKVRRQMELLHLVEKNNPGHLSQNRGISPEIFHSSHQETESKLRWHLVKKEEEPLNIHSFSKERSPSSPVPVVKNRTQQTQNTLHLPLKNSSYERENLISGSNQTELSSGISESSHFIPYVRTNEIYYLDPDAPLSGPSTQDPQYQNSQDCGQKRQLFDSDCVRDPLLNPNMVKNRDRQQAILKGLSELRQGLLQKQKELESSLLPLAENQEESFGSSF

EGFP-CCDC66 (1-408) = molecular target: T3, EGFP-CCDC66 (1-408) (UniProt A2RUB6)
T3 sequence: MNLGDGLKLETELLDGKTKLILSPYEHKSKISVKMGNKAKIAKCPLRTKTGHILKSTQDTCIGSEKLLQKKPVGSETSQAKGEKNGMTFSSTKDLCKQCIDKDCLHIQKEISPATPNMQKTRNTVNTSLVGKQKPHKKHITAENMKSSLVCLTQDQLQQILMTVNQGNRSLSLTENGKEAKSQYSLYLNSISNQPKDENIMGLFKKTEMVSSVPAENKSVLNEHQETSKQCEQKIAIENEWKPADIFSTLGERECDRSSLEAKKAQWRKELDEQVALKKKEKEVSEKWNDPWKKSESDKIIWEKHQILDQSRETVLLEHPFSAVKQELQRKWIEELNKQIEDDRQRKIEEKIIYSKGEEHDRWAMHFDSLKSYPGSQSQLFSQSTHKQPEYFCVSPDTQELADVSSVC

binding (EGFP-CCDC66 full length): binds
binding (EGFP-CCDC66 (570-948)): no binding
binding (EGFP-CCDC66 (1-408)): no binding
Molecule: CSPP1 (from UniProt Q1MSJ5 1-1256)

binding (EGFP-CCDC66 full length): binds
binding (EGFP-CCDC66 (570-948)): no binding
binding (EGFP-CCDC66 (1-408)): no binding
Molecule: CEP290 (from UniProt O15078 1-2479)

binding (EGFP-CCDC66 full length): binds
binding (EGFP-CCDC66 (570-948)): no binding
binding (EGFP-CCDC66 (1-408)): no binding
Molecule: PCM1 (from UniProt Q15154 1-2024)

binding (EGFP-CCDC66 full length): binds
binding (EGFP-CCDC66 (570-948)): no binding
binding (EGFP-CCDC66 (1-408)): no binding
B1: CEP104 (protein, UniProt O60308 1-925)
chain: MPHKIGFVVVSSSGHEDGFSARELMIHAPTVSGWRSPRFCQFPQEIVLQMVERCRIRKLQLLAHQYMISSKIEFYISESLPEYFAPYQAERFRRLGYVSLCDNEKTGCKARELKSVYVDAVGQFLKLIFHQNHVNKYNIYNQVALVAINIIGDPADFSDESNTASREKLIDHYLGHNSEDPALEGTYARKSDYISPLDDLAFDMYQDPEVAQIIRKLDERKREAVQKERYDYAKKLKQAIADLQKVGERLGRYEVEKRCAVEKEDYDLAKEKKQQMEQYRAEVYEQLELHSLLDAELMRRPFDLPLQPLARSGSPCHQKPMPSLPQLEERGTENQFAEPFLQEKPSSYSLTISPQHSAVDPLLPATDPHPKINAESLPYDERPLPAIRKHYGEAVVEPEMSNADISDARRGGMLGEPEPLTEKALREASSAIDVLGETLVAEAYCKTWSYREDALLALSKKLMEMPVGTPKEDLKNTLRASVFLVRRAIKDIVTSVFQASLKLLKMIITQYIPKHKLSKLETAHCVERTIPVLLTRTGDSSARLRVTAANFIQEMALFKEVKSLQIIPSYLVQPLKANSSVHLAMSQMGLLARLLKDLGTGSSGFTIDNVMKFSVSALEHRVYEVRETAVRIILDMYRQHQASILEYLPPDDSNTRRNILYKTIFEGFAKIDGRATDAEMRARRKAATEEAEKQKKEEIKALQGQLAALKEIQAEVQEKESDAVKPKNQDIQGGKAAPAEALGIPDEHYLDNLCIFCGERSESFTEEGLDLHYWKHCLMLTRCDHCKQVVEISSLTEHLLTECDKKDGFGKCYRCSEAVFKEELPRHIKHKDCNPAKPEKLANRCPLCHENFSPGEEAWKAHLMGPAGCTMNLRKTHILQKAPALQPGKSSAVAASGPLGSKAGSKIPTPKGGLSKSSSRTYAKR
